From PMC10545698 come the findings set out here.

The chains behind the UniProt entries cited, without tags or fusion partners.
UniProt Q9UHI6: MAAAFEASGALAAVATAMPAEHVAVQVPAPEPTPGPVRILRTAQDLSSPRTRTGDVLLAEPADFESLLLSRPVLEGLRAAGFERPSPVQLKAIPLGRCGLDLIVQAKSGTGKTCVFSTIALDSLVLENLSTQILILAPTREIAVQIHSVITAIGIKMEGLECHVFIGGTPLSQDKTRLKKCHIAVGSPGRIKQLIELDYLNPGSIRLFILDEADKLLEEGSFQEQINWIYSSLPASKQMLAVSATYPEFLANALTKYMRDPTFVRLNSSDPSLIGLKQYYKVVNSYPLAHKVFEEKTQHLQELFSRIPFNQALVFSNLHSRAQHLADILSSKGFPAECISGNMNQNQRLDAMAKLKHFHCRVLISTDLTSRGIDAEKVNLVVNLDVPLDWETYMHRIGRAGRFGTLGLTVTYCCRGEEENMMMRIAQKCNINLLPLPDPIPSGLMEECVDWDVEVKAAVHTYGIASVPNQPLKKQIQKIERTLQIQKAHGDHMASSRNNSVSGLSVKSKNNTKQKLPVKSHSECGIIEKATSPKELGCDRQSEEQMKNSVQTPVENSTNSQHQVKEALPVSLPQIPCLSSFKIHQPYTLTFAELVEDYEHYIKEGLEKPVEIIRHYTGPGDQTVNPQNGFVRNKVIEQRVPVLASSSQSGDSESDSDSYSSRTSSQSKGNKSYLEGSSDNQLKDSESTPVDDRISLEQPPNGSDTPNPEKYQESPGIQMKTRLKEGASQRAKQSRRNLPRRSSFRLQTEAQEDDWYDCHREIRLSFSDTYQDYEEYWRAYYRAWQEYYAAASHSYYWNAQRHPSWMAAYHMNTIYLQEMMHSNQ

These are yes or no findings as the source states them, for the method shown. In cells and extracts the contact can be indirect. Some results given as binding are weak or reduced against the parent protein; the word gives no strength.

The assay addresses T1, WD repeat domain 4 (WDR4) (human (endogenous in UM-UC-3 and 5637)) (UniProt P57081).
T1 sequence: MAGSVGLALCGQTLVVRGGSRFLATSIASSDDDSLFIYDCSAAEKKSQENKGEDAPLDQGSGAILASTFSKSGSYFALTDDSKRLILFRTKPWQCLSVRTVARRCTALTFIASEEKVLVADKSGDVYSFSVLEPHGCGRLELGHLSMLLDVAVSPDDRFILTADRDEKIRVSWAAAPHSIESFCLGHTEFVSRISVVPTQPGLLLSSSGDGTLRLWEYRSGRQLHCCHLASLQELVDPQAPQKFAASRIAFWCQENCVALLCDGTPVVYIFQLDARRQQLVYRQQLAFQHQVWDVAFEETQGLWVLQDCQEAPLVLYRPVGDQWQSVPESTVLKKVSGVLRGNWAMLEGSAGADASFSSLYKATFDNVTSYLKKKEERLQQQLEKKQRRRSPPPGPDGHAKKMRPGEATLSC
As to the kind of experiment: co-IP; endogenous proteins immunoprecipitated from UM-UC-3 and 5637 cell lysates with anti-WDR4 or anti-DDX20 antibody (2 ug, overnight at 4 C; IgG as control; Protein A/G magnetic beads), Western blot; also in WDR4 KD and Control KD UM-UC-3 cells. On the technique in general: Immunoblotting shows a protein as a band on a membrane.

As for “DEAD-box helicase 20 (DDX20) (from UniProt Q9UHI6 1-824)”, the binding entry is “binds”.
